± gives the uncertainty stated by the source. Many of these values have a large error.
Assay: self-splicing fitness, log relative to wild type (ln ratio); higher = more splicing; Tetrahymena group I intron in knt gene, E. coli kanamycin selection, DiMSum; sequences stand for … in CUCUCU…GGAGGGAAAAGUUAUCAGGCAUGCACCUGGUAGCUAGUCUUUAAACCAAUAGAUUGCAUCGGUUUAAAAGGCAAGACCGUCAAAUUGCGGGAAAGGGGUCAACAGCCGUUCAGUACCAAGUCUCAGGGGAAACUUUGAGAUGGCCUUGCAAAGGGUAUGGUAAUAAGCUGACGGACAUGGUCCUAACCACGCAGCCAAGUCCUAAGUCAACAGAUCUUCUGUUGAUAUGGAUGCAGUUCACAGACUAAAUGUCGGUCGGGGAAGAUGUAUUCUUCUCAUAAGAUAUAGUCGGACCUCUCCUUAAUGGGAGCUAGCGGAUGAAGUGAUGCAACACUGGAGCCGCUGGGAACUAAUUUGUAUGCGAAAGUAUAUUGAUUAGUUUUGGAGUACUCGUGGUCG
Method in brief: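 Pooled colonies went to amplicon sequencing on an Illumina HiSeq 2500 after six replicate transformations. The plates were LB agar with 100 μg/mL carbenicillin, 50 μM IPTG and 0.2% rhamnose, with or without 25 μg/mL kanamycin, incubated overnight at 37°C or 30°C. The E. coli BL21(DE3) library had all eight P1ex-region intron nucleotides randomised, the intron placed in the knt kanamycin-resistance gene on pET-22b(+). DiMSum fitness is the error-weighted combination of replicate fold changes, kanamycin against none, normalised to wild type.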

Sequence | self-splicing fitness (ln) (30 °C) | self-splicing fitness (ln) (37 °C)
UCCGAGCAAUAUUACGAAGC | -3.77 ± 0.52 | –
AGGGAGCAAUAUUACGAGCU | – | -2.55 ± 0.54
UGCCAGCAAUAUUACGGUAC | -4.51 ± 0.59 | –
CCAAAGCAAUAUUACGCACC | – | -2.49 ± 0.62
GAGGAGCAAUAUUACGAGAC | – | -3.12 ± 0.6
UUAGAGCAAUAUUACGAAUC | -3.7 ± 1.1 | -0.19 ± 0.92
UCCUAGCAAUAUUACGUACC | -2.36 ± 0.47 | –
UUGGAGCAAUAUUACGGAUU | -4.04 ± 0.52 | -2.57 ± 0.55
UGUGAGCAAUAUUACGCUAC | – | -3.49 ± 0.52
CCGAAGCAAUAUUACGCUCC | – | -2.96 ± 0.54
GUAGAGCAAUAUUACGAACC | – | -1.13 ± 1.2
UCUGAGCAAUAUUACGUUGC | – | -2.89 ± 0.75
GGACAGCAAUAUUACGCGCG | 0.181 ± 0.094 | -0.742 ± 0.11
UCGAAGCAAUAUUACGCUAC | – | -2.52 ± 0.54
GUUGAGCAAUAUUACGUGCC | – | -2.32 ± 0.8
GUUUAGCAAUAUUACGCUAC | – | -1.09 ± 0.65
GAUGAGCAAUAUUACGGGGA | -4.22 ± 0.51 | –
CGCGAGCAAUAUUACGACCG | -2.81 ± 1.1 | 1.04 ± 0.63
UUGUAGCAAUAUUACGACAU | -0.918 ± 0.015 | -0.322 ± 0.034
GGCGAGCAAUAUUACGAGCU | -4.29 ± 0.52 | -1.54 ± 0.67
UGGGAGCAAUAUUACGGCUU | -2.02 ± 1.2 | -2.48 ± 0.77
GAUAAGCAAUAUUACGAGAA | -2.31 ± 0.87 | –
UUAUAGCAAUAUUACGCCGU | -2.09 ± 0.82 | -2.63 ± 1.1
UAUGAGCAAUAUUACGAGCU | -2.71 ± 0.2 | -2.09 ± 0.42

Some of the entries so far, in CSV form:
Sequence,self-splicing fitness (ln) (30 °C),self-splicing fitness (ln) (37 °C)
GUUUAGCAAUAUUACGCUAC,–,-1.09 ± 0.65
GAUGAGCAAUAUUACGGGGA,-4.22 ± 0.51,–
CGCGAGCAAUAUUACGACCG,-2.81 ± 1.1,1.04 ± 0.63

The list continues.

Sequence | self-splicing fitness (ln) (30 °C) | self-splicing fitness (ln) (37 °C)
UUGUAGCAAUAUUACGUCAC | – | -2.17 ± 0.51
CGUAAGCAAUAUUACGUCAC | -4.76 ± 1 | –
GAUGAGCAAUAUUACGAACC | -0.828 ± 1.4 | –
AUGGAGCAAUAUUACGUACU | -0.848 ± 0.16 | -0.491 ± 0.18
UGGGAGCAAUAUUACGGCGC | – | -0.595 ± 1.4
UCAGAGCAAUAUUACGCGCU | -4.17 ± 0.72 | –
GGUCAGCAAUAUUACGUUUC | 0.000828 ± 0.13 | -0.437 ± 0.14
UGCGAGCAAUAUUACGCCAC | – | -1.25 ± 0.7
ACGGAGCAAUAUUACGAGCC | -4.51 ± 1 | –
AAGGAGCAAUAUUACGAAAU | -2.26 ± 0.14 | -3 ± 0.29
GUCGAGCAAUAUUACGCCGC | -3.06 ± 0.63 | -2.41 ± 0.55
CCAUAGCAAUAUUACGAGAA | – | -1.79 ± 0.51
AGUAAGCAAUAUUACGAAUU | – | -2.49 ± 0.55
ACUGAGCAAUAUUACGUAAA | -3.02 ± 0.53 | –
GUAGAGCAAUAUUACGAGGA | – | -1.63 ± 0.53
GGCUAGCAAUAUUACGCCGC | – | -2.05 ± 0.58
ACUUAGCAAUAUUACGGUGG | – | -3.69 ± 0.52
UAUCAGCAAUAUUACGCUAG | -0.545 ± 0.1 | -0.149 ± 0.12
UCAGAGCAAUAUUACGCGAC | – | -3.15 ± 0.6
UGAAAGCAAUAUUACGUCCC | – | 0.859 ± 0.64
GUGUAGCAAUAUUACGUCAC | -2.41 ± 0.5 | -2.39 ± 1.1
ACGGAGCAAUAUUACGCGGC | – | -2.58 ± 0.53
UAGCAGCAAUAUUACGAUCC | -2.34 ± 0.8 | -1.69 ± 1.2
AUGAAGCAAUAUUACGGAAG | -1.17 ± 0.1 | -0.408 ± 0.16

Sequence | self-splicing fitness (ln) (30 °C) | self-splicing fitness (ln) (37 °C)
CGGGAGCAAUAUUACGAUAC | -2.79 ± 0.8 | –
GUGUAGCAAUAUUACGCACC | -1.88 ± 0.8 | –
CUGCAGCAAUAUUACGAUCC | -3.06 ± 1.1 | -2.06 ± 0.51
CGCGAGCAAUAUUACGAAGC | -4.24 ± 0.74 | –
CUCUAGCAAUAUUACGUUCC | -2.29 ± 0.64 | -1.29 ± 0.51
GUGCAGCAAUAUUACGCACC | -3.07 ± 0.79 | –
UCGAAGCAAUAUUACGUGUC | -4.26 ± 0.6 | –
CCGGAGCAAUAUUACGUUGC | – | -1.9 ± 0.58
GCAGAGCAAUAUUACGACCA | -1.41 ± 0.72 | -1.37 ± 0.57
UGAUAGCAAUAUUACGUCUA | 0.0941 ± 0.089 | -0.107 ± 0.094
GUUCAGCAAUAUUACGCGGU | -1.52 ± 0.11 | -1.69 ± 0.14
GCAGAGCAAUAUUACGCUGG | -2.58 ± 0.64 | -1.12 ± 0.51
GGGUAGCAAUAUUACGAAGG | -3.25 ± 0.51 | -1.51 ± 0.84
AAUGAGCAAUAUUACGCCGU | -3.4 ± 0.52 | –
CCCAAGCAAUAUUACGGCCC | – | -1.83 ± 0.82
CAGUAGCAAUAUUACGGCCU | -3.02 ± 0.2 | -1.67 ± 0.17
UGCUAGCAAUAUUACGAUUC | -4.45 ± 0.59 | –
GUGCAGCAAUAUUACGAUCC | -1.27 ± 1.4 | -1.1 ± 0.92
CUGUAGCAAUAUUACGGGUA | – | -3.44 ± 0.73
CUCUAGCAAUAUUACGGGCC | -4.05 ± 0.72 | -2.59 ± 0.62
UAGGAGCAAUAUUACGCUCA | -1.55 ± 0.19 | -1.37 ± 0.16
UAAGAGCAAUAUUACGCCCC | – | 0.608 ± 1.1
UGCCAGCAAUAUUACGACAG | -1.31 ± 0.1 | -0.406 ± 0.12
GAGCAGCAAUAUUACGCGUG | -1.92 ± 0.15 | -1.66 ± 0.18

A section from the list above:
Sequence | self-splicing fitness (ln) (30 °C) | self-splicing fitness (ln) (37 °C)
GUGCAGCAAUAUUACGAUCC | -1.27 ± 1.4 | -1.1 ± 0.92
CUGUAGCAAUAUUACGGGUA | – | -3.44 ± 0.73
CUCUAGCAAUAUUACGGGCC | -4.05 ± 0.72 | -2.59 ± 0.62
UAGGAGCAAUAUUACGCUCA | -1.55 ± 0.19 | -1.37 ± 0.16
UAAGAGCAAUAUUACGCCCC | – | 0.608 ± 1.1
UGCCAGCAAUAUUACGACAG | -1.31 ± 0.1 | -0.406 ± 0.12

(further entries)

Sequence | self-splicing fitness (ln) (30 °C) | self-splicing fitness (ln) (37 °C)
CAGUAGCAAUAUUACGUAGU | -2.5 ± 0.13 | -2.54 ± 0.18
GCCAAGCAAUAUUACGGCCC | -2.13 ± 0.2 | -1.57 ± 0.22
UGCCAGCAAUAUUACGAAUC | – | -2.77 ± 0.75
UCGGAGCAAUAUUACGCUAG | -1.87 ± 0.21 | -2.38 ± 0.27
AUGAAGCAAUAUUACGCCUG | -0.59 ± 0.092 | -0.209 ± 0.11
AUUGAGCAAUAUUACGGGUA | -4.18 ± 0.51 | –
CGAAAGCAAUAUUACGAAUU | -4.27 ± 0.29 | -1.55 ± 0.14
UUAAAGCAAUAUUACGGCUC | -0.0999 ± 0.18 | 0.714 ± 0.23
CUCCAGCAAUAUUACGCUGG | – | -3.71 ± 0.59
UGCGAGCAAUAUUACGGGCU | – | -2.72 ± 0.62
AUUUAGCAAUAUUACGCCCA | -1.06 ± 0.26 | -1.58 ± 0.27
CACCAGCAAUAUUACGCCCC | – | -2.68 ± 0.62
CGCGAGCAAUAUUACGAUUA | -3.1 ± 0.3 | -1.99 ± 0.35
GCGGAGCAAUAUUACGCCCG | – | -1.29 ± 1.2
UAGGAGCAAUAUUACGGACC | -3.19 ± 0.61 | -1.99 ± 0.65
AGUGAGCAAUAUUACGGCCC | – | -0.085 ± 0.55
CUCUAGCAAUAUUACGACCU | – | -3.68 ± 0.6
UUAUAGCAAUAUUACGAGCU | -3.61 ± 0.54 | –
UCGAAGCAAUAUUACGAAAU | -4.3 ± 0.52 | –
UCCGAGCAAUAUUACGUGUC | -4.2 ± 1 | -2.64 ± 0.34
UCAUAGCAAUAUUACGCCAA | – | -1.71 ± 0.87
UCCCAGCAAUAUUACGCAAG | -3.45 ± 0.16 | -2.69 ± 0.21
GUCGAGCAAUAUUACGUCAG | -3.08 ± 0.16 | -2.98 ± 0.19
AAAGAGCAAUAUUACGACGC | -1.94 ± 0.82 | -1.05 ± 0.51

Sequence | self-splicing fitness (ln) (30 °C) | self-splicing fitness (ln) (37 °C)
UGCGAGCAAUAUUACGACCC | -1.14 ± 0.76 | –
CAGCAGCAAUAUUACGAGCC | -3.27 ± 0.62 | –
GAGGAGCAAUAUUACGGAGG | -3.98 ± 0.53 | –
UCGGAGCAAUAUUACGACCA | -2.47 ± 0.69 | -1.71 ± 0.51
GUGGAGCAAUAUUACGAUCA | -2.19 ± 0.49 | -0.101 ± 0.2
CCUAAGCAAUAUUACGGAUC | -4.74 ± 0.58 | -2.09 ± 0.58
CUUGAGCAAUAUUACGCGAA | – | -3.15 ± 0.6
CUGUAGCAAUAUUACGAAAA | – | -2.64 ± 1.1
CUACAGCAAUAUUACGAGGC | -3.28 ± 0.52 | –
CAUGAGCAAUAUUACGAGAA | – | -2.89 ± 1.1
CAUUAGCAAUAUUACGUCGC | – | -2.58 ± 0.54
GCGGAGCAAUAUUACGUAUA | -3.88 ± 1.1 | –
CUCGAGCAAUAUUACGUACA | -3.67 ± 0.75 | -2.02 ± 0.6
CCGUAGCAAUAUUACGUAUC | -5.1 ± 0.72 | –
GGUGAGCAAUAUUACGCCUA | – | -0.997 ± 0.5
AGUGAGCAAUAUUACGAAAU | -3.07 ± 0.61 | –
UGGAAGCAAUAUUACGAAAC | -3.53 ± 0.78 | –
UUAGAGCAAUAUUACGUCUU | -1.62 ± 0.097 | -0.85 ± 0.13
ACCUAGCAAUAUUACGGGUG | -1.47 ± 0.071 | -1.1 ± 0.087
CGGGAGCAAUAUUACGGGUC | -4.16 ± 1 | –
CUAAAGCAAUAUUACGCAUC | – | -2.55 ± 0.54
AACGAGCAAUAUUACGCUCG | – | -2.47 ± 0.62
UGAUAGCAAUAUUACGAGCC | – | -1.1 ± 0.65

Source: the supplement of paper PMC7877785
